The supplement of paper PMC10849652
The list shows a part of the results.

The chains behind the UniProt entries cited, without tags or fusion partners. Where a name states a change or a piece, a line headed by the entry shows the natural chain unless it says otherwise.
UniProt P00813: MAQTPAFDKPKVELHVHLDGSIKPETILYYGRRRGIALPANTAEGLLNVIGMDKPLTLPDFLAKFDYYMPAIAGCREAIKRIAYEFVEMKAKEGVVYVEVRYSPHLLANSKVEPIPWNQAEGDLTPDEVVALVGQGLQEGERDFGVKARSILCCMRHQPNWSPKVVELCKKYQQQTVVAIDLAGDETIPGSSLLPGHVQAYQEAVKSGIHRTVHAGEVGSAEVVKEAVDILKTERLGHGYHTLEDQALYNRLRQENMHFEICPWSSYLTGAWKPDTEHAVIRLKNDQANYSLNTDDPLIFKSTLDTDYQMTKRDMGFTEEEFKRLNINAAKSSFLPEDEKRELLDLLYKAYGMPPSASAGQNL
UniProt Q6UY14: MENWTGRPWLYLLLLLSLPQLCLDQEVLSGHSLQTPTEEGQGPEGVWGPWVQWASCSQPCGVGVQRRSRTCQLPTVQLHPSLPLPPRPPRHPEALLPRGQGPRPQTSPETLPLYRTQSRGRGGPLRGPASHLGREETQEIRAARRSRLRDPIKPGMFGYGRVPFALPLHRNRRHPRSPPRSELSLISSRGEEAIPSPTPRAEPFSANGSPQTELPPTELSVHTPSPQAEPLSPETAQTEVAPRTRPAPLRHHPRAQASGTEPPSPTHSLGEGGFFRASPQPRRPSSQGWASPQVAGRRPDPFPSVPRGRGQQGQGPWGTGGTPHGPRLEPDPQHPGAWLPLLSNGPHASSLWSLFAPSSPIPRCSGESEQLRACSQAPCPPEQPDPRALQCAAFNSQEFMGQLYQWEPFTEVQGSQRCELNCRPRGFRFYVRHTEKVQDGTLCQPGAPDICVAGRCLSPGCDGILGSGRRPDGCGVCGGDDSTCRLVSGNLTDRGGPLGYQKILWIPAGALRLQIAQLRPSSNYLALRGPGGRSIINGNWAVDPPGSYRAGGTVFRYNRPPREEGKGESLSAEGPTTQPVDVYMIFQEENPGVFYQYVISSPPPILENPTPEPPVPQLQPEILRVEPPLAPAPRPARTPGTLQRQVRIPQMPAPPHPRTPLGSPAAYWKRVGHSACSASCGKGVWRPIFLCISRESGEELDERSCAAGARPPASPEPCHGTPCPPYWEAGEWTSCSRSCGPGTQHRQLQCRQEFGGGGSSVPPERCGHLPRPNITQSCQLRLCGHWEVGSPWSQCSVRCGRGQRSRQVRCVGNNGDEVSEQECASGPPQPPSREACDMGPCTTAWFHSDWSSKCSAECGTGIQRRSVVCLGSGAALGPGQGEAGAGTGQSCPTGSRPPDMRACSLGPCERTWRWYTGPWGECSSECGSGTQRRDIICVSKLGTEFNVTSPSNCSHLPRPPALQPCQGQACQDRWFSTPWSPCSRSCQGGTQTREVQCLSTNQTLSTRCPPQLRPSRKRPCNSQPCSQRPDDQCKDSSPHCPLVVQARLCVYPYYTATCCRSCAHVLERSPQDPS
UniProt P16219: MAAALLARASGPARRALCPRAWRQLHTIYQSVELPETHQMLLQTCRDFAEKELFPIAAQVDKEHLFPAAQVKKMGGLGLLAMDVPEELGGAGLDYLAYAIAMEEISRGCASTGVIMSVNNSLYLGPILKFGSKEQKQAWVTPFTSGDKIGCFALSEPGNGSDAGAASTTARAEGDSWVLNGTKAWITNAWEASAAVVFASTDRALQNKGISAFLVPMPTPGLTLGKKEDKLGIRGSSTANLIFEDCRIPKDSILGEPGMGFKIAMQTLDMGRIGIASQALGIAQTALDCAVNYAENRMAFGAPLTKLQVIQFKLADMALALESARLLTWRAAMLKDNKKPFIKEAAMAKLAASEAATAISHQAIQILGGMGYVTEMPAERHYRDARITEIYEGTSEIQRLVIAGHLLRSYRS
UniProt O14639: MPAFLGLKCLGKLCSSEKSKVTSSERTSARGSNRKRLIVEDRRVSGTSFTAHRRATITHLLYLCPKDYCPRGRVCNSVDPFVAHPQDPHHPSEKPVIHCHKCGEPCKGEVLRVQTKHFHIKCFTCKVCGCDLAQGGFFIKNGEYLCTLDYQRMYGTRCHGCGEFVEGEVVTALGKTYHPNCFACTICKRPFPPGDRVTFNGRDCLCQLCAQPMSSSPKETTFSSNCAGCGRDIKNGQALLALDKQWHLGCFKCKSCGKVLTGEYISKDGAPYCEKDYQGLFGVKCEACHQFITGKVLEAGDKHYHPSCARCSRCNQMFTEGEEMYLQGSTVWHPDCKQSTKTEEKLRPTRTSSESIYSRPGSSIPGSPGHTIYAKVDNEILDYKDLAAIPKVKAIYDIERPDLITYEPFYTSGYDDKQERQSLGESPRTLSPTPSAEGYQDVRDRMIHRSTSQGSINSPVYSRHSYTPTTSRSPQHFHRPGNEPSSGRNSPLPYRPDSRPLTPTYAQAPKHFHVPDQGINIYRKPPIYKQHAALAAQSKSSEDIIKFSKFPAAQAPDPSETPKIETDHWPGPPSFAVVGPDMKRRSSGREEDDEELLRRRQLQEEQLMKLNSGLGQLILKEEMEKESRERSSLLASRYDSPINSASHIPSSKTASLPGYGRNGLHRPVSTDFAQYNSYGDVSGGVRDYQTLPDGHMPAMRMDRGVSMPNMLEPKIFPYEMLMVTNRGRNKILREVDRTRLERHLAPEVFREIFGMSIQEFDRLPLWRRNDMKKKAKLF
UniProt O43707, whole entry, looked up: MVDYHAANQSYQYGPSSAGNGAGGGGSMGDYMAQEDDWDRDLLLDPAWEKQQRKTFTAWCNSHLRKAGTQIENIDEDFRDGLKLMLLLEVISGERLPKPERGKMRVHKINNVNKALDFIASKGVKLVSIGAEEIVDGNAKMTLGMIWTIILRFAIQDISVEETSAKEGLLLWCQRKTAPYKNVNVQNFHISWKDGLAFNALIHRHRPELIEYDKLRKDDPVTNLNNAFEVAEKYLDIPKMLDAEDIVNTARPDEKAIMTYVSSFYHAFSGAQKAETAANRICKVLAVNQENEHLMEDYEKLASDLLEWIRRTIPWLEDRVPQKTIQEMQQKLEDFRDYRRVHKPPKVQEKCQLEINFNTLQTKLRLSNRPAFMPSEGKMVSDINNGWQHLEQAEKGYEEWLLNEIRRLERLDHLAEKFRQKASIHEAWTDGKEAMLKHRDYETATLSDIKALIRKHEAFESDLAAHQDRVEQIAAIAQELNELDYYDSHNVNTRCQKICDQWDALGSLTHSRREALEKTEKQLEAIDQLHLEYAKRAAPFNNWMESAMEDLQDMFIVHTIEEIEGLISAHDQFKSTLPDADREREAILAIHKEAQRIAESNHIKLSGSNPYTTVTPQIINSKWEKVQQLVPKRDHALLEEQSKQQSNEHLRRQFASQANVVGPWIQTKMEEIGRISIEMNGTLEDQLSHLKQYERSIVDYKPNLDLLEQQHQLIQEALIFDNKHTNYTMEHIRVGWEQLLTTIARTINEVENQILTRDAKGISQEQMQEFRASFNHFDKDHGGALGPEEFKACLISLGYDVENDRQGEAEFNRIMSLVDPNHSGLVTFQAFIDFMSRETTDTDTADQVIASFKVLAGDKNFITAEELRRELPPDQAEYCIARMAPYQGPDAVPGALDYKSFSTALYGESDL
UniProt P24752: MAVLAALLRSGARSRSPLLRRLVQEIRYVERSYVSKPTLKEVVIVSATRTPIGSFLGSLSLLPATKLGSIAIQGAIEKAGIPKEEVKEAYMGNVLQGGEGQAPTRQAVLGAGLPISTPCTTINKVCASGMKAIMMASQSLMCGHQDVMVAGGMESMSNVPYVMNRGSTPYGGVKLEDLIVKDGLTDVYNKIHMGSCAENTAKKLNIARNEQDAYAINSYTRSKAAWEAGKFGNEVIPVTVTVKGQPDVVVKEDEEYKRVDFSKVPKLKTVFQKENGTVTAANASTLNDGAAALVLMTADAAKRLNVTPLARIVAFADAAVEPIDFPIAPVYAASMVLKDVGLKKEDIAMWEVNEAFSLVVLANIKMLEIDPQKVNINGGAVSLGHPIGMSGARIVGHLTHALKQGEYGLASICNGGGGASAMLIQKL
UniProt Q9NRG9: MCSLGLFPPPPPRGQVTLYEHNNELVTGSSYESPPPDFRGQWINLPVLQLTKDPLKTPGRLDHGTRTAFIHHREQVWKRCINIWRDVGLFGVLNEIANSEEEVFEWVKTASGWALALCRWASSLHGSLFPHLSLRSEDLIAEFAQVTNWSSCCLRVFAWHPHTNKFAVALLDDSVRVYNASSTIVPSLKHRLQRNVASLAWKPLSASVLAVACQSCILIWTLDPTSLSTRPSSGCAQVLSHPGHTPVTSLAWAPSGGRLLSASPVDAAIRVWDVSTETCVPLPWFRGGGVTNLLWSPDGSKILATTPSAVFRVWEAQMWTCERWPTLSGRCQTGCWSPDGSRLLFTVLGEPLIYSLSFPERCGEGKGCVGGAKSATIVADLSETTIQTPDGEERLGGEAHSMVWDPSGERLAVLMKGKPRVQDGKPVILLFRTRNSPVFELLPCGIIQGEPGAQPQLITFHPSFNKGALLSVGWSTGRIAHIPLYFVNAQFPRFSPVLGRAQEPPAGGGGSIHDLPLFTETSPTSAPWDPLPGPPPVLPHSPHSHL
UniProt Q03154: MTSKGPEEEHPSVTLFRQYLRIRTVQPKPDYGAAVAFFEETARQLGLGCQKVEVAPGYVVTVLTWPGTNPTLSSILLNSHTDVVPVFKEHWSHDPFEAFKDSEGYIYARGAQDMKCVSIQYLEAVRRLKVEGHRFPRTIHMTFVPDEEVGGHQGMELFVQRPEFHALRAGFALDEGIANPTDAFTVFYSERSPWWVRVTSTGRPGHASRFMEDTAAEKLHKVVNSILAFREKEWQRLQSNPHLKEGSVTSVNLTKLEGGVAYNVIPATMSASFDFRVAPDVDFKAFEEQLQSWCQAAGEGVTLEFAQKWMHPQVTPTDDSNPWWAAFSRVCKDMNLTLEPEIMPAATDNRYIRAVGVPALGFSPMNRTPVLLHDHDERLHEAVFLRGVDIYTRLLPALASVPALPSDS
UniProt P09110: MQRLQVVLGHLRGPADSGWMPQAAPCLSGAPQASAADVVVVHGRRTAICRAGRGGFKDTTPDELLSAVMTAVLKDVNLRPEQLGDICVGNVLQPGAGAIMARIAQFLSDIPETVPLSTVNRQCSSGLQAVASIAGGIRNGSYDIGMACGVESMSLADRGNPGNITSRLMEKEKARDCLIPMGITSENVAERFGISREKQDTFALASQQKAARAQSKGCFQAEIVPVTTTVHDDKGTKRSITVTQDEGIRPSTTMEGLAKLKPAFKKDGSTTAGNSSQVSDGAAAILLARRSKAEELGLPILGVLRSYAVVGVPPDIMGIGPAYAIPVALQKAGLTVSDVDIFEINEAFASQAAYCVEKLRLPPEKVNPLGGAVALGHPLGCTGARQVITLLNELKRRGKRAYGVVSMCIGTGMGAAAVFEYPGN
UniProt P55265: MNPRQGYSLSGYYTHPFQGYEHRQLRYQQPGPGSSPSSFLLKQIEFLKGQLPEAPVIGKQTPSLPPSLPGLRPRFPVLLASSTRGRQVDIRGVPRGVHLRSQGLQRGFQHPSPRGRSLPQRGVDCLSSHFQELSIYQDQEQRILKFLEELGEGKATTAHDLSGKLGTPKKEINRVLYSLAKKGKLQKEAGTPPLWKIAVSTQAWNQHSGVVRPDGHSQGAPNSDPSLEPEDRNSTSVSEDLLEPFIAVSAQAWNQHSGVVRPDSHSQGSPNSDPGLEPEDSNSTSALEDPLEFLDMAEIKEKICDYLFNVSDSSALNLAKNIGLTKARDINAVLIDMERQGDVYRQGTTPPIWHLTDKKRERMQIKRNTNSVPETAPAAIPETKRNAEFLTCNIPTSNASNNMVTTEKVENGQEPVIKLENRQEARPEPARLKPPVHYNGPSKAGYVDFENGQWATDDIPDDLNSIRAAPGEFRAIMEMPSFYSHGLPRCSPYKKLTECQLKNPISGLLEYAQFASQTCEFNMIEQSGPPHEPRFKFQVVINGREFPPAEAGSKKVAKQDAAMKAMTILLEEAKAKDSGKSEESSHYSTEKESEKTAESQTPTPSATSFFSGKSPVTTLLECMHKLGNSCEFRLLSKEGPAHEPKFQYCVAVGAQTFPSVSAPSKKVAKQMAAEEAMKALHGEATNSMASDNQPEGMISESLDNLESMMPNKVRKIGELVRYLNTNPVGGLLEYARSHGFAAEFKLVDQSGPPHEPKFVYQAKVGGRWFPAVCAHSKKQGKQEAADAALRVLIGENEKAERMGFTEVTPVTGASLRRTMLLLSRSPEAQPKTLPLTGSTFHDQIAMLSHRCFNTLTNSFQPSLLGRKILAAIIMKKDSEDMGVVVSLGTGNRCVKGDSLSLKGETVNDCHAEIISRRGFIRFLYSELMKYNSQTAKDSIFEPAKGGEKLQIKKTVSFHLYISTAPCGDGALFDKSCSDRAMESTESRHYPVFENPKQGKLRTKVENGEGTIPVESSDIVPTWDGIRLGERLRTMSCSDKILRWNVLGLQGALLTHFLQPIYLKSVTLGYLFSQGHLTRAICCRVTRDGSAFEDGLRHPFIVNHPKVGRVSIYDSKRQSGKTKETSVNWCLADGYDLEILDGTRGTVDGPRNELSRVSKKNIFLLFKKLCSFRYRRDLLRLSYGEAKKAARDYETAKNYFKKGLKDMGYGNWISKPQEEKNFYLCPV

Legend:
Experiment in all cases: log2 fold change, soluble protein after heating vs DMSO (PISA); higher = thermal stabilisation; K562 cells, 10 uM, 30 min; active = over 0.2 and 3.5 SD of the protein, either way, in both replicates (recomputed)
[1] = compound: NC(=O)Nc1cc(-c2cccc(F)c2)sc1C(=O)N[C@H]1CCCNC1
Outline: (§1)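 K562 cells at 2×10^6 cells/mL were treated for 30 min with 10 μM compound, and aliquots were heated for 3 min over 48°C-58°C before pooling. Extraction used PBS with 0.5% NP-40 at 4°C, and soluble protein was the supernatant after 21,000xg for 90 min, measured by TMTpro 16plex LC-MS/MS with channel sums equalised. Thermal stability values, relative to control samples and from duplicates, are log2 fold changes.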

[2] = compound: NC(=O)c1cnc(N[C@@H]2CCCC[C@@H]2N)nc1Nc1cccc(-n2nccn2)c1
Outline: as §1

[3] = compound: NC1(c2ccc(-c3nc4ccn5c(=O)[nH]nc5c4cc3-c3ccccc3)cc2)CCC1
Outline: as §1

[4] = compound: NCC(=O)Nc1ccc(-n2nc(C(F)(F)F)cc2-c2ccc3c(ccc4ccccc43)c2)cc1
Outline: as §1

entinostat = compound: Nc1ccccc1NC(=O)c1ccc(CNC(=O)OCc2cccnc2)cc1 [entinostat]
Outline: as §1

vorinostat = compound: O=C(CCCCCCC(=O)Nc1ccccc1)NO [vorinostat]
Outline: as §1

citarinostat = compound: O=C(CCCCCCNC(=O)c1cnc(N(c2ccccc2)c2ccccc2Cl)nc1)NO [citarinostat]
Outline: as §1

silmitasertib = compound: O=C(O)c1ccc2c(c1)nc(Nc1cccc(Cl)c1)c1ccncc12 [silmitasertib]
Outline: as §1

[5] = compound: O=C1NC(=O)C(c2cnc3ccccn23)=C1c1cn2c3c(cc(F)cc13)CN(C(=O)N1CCCCC1)CC2
Outline: as §1

[6] = compound: c1cc(OCCN2CCCCC2)cc(-c2n[nH]c3ccc(-c4nnc[nH]4)cc23)c1
Outline: as §1

entospletinib = compound: c1cn2cc(-c3ccc4cn[nH]c4c3)nc(Nc3ccc(N4CCOCC4)cc3)c2n1 [entospletinib]
Outline: as §1

Measured: log2 fold change

ADA (UniProt P00813)
inactive: [1] -0.002 | [2] -0.057 | [3] -0.032 | [4] -0.046 | entinostat 0.016 | vorinostat 0.027 | citarinostat 0.029 | silmitasertib -0.066 | [5] -0.047 | [6] 0.044 | entospletinib 0.06

ADAMTSL4 isoform 3 (UniProt Q6UY14)
inactive: [1] -0.115 | [2] -0.019 | [3] 0.002 | [4] 0.089 | entinostat 0.007 | vorinostat -0.024 | citarinostat 0.035 | silmitasertib 0.09 | [5] 0.103 | [6] -0.061 | entospletinib 0.026

ABCC1 (UniProt P33527)
inactive: [1] -0.011 | [2] 0.035 | [3] 0 | [4] 0.005 | entinostat -0.027 | vorinostat 0.013 | citarinostat 0.027 | silmitasertib 0 | [5] 0.022 | [6] -0.041 | entospletinib 0.023

ABHD12 isoform 2 (UniProt Q8N2K0)
inactive: [1] 0.036 | [2] -0.001 | [3] 0.07 | [4] -0.006 | entinostat 0.011 | vorinostat 0.034 | citarinostat -0.015 | silmitasertib 0.039 | [5] 0.098 | [6] -0.096 | entospletinib 0.092

ACADS (UniProt P16219)
inactive: [1] 0.025 | [2] 0.01 | [3] -0.038 | [4] 0.055 | entinostat -0.032 | vorinostat 0 | citarinostat -0.088 | silmitasertib 0.005 | [5] -0.029 | [6] 0.476 | entospletinib -0.053

ACTN1 (UniProt P12814)
inactive: [1] -0.012 | [2] -0.014 | [3] -0.001 | [4] 0.042 | entinostat -0.018 | vorinostat -0.028 | citarinostat 0.029 | silmitasertib 0.009 | [5] -0.018 | [6] -0.04 | entospletinib -0.056

ACAT2 (UniProt Q9BWD1)
inactive: [1] 0.016 | [2] 0.037 | [3] 0.092 | [4] 0.047 | entinostat -0.038 | vorinostat 0.021 | citarinostat -0.032 | silmitasertib -0.052 | [5] -0.034 | [6] 0.016 | entospletinib 0.008

ADAM17 (UniProt P78536)
inactive: [1] 0.024 | [2] -0.015 | [3] -0.066 | [4] 0.135 | entinostat -0.006 | vorinostat -0.02 | citarinostat -0.039 | silmitasertib 0.037 | [5] -0.023 | [6] -0.053 | entospletinib -0.005

ABLIM1 (UniProt O14639)
inactive: [1] 0.031 | [2] -0.031 | [3] 0.075 | [4] -0.04 | entinostat 0.081 | vorinostat -0.072 | citarinostat -0.041 | silmitasertib 0.315 | [5] 0.008 | [6] -0.023 | entospletinib 0.008

ACAD8 (UniProt Q9UKU7)
inactive: [1] -0.036 | [2] -0.049 | [3] -0.016 | [4] 0.011 | entinostat -0.064 | vorinostat 0 | citarinostat 0.019 | silmitasertib -0.017 | [5] -0.126 | [6] 0.012 | entospletinib -0.031

ACTN4 (UniProt O43707)
inactive: [1] 0 | [2] -0.012 | [3] 0.022 | [4] -0.018 | entinostat -0.046 | vorinostat -0.009 | citarinostat -0.027 | silmitasertib -0.002 | [5] -0.051 | [6] -0.007 | entospletinib -0.011

7 consecutive entries already listed, for reference:
ABHD12 isoform 2 (UniProt Q8N2K0)
inactive: [1] 0.036 | [2] -0.001 | [3] 0.07 | [4] -0.006 | entinostat 0.011 | vorinostat 0.034 | citarinostat -0.015 | silmitasertib 0.039 | [5] 0.098 | [6] -0.096 | entospletinib 0.092

ACADS (UniProt P16219)
inactive: [1] 0.025 | [2] 0.01 | [3] -0.038 | [4] 0.055 | entinostat -0.032 | vorinostat 0 | citarinostat -0.088 | silmitasertib 0.005 | [5] -0.029 | [6] 0.476 | entospletinib -0.053

ACTN1 (UniProt P12814)
inactive: [1] -0.012 | [2] -0.014 | [3] -0.001 | [4] 0.042 | entinostat -0.018 | vorinostat -0.028 | citarinostat 0.029 | silmitasertib 0.009 | [5] -0.018 | [6] -0.04 | entospletinib -0.056

ACAT2 (UniProt Q9BWD1)
inactive: [1] 0.016 | [2] 0.037 | [3] 0.092 | [4] 0.047 | entinostat -0.038 | vorinostat 0.021 | citarinostat -0.032 | silmitasertib -0.052 | [5] -0.034 | [6] 0.016 | entospletinib 0.008

ADAM17 (UniProt P78536)
inactive: [1] 0.024 | [2] -0.015 | [3] -0.066 | [4] 0.135 | entinostat -0.006 | vorinostat -0.02 | citarinostat -0.039 | silmitasertib 0.037 | [5] -0.023 | [6] -0.053 | entospletinib -0.005

ABLIM1 (UniProt O14639)
inactive: [1] 0.031 | [2] -0.031 | [3] 0.075 | [4] -0.04 | entinostat 0.081 | vorinostat -0.072 | citarinostat -0.041 | silmitasertib 0.315 | [5] 0.008 | [6] -0.023 | entospletinib 0.008

ACAD8 (UniProt Q9UKU7)
inactive: [1] -0.036 | [2] -0.049 | [3] -0.016 | [4] 0.011 | entinostat -0.064 | vorinostat 0 | citarinostat 0.019 | silmitasertib -0.017 | [5] -0.126 | [6] 0.012 | entospletinib -0.031

Remaining list, next part:

ABCE1 (UniProt P61221)
inactive: [1] 0.045 | [2] 0.03 | [3] -0.02 | [4] -0.01 | entinostat 0.017 | vorinostat -0.026 | citarinostat 0.01 | silmitasertib -0.007 | [5] -0.03 | [6] 0.009 | entospletinib -0.015

ACAT1 (UniProt P24752)
inactive: [1] 0.012 | [2] -0.031 | [3] -0.039 | [4] -0.043 | entinostat -0.009 | vorinostat -0.039 | citarinostat 0 | silmitasertib -0.044 | [5] -0.029 | [6] -0.023 | entospletinib -0.079

AAAS (UniProt Q9NRG9)
inactive: [1] 0.013 | [2] 0.007 | [3] -0.017 | [4] -0.021 | entinostat -0.038 | vorinostat 0.034 | citarinostat 0.029 | silmitasertib -0.011 | [5] 0.002 | [6] 0.026 | entospletinib -0.022

ACADSB (UniProt P45954)
inactive: [1] 0.026 | [2] 0.031 | [3] -0.016 | [4] 0.043 | entinostat -0.045 | vorinostat 0.024 | citarinostat 0.034 | silmitasertib 0.025 | [5] -0.082 | [6] -0.036 | entospletinib 0.018

ACTB, A0A2R8Y793
inactive: [1] 0.014 | [2] 0.011 | [3] 0.001 | [4] 0.058 | entinostat -0.017 | vorinostat -0.002 | citarinostat 0.002 | silmitasertib -0.011 | [5] -0.037 | [6] 0.003 | entospletinib -0.048

ACOT8 (UniProt O14734)
inactive: [1] 0.056 | [2] -0.039 | [3] -0.009 | [4] 0.033 | entinostat -0.054 | vorinostat -0.03 | citarinostat 0.045 | silmitasertib 0.07 | [5] 0.067 | [6] -0.039 | entospletinib -0.023

ACY1 (UniProt Q03154)
inactive: [1] 0.08 | [2] 0.039 | [3] 0.019 | [4] 0.014 | entinostat 0.029 | vorinostat -0.016 | citarinostat 0.029 | silmitasertib -0.011 | [5] -0.001 | [6] -0.034 | entospletinib 0.016

ACAA1 (UniProt P09110)
inactive: [1] 0.019 | [2] 0.032 | [3] 0.04 | [4] 0.027 | entinostat -0.002 | vorinostat -0.036 | citarinostat 0.056 | silmitasertib 0.002 | [5] -0.028 | [6] -0.007 | entospletinib -0.013

ACACA isoform 4 (UniProt Q13085)
inactive: [1] 0.003 | [2] -0.068 | [3] 0.009 | [4] 0.022 | entinostat 0.042 | vorinostat 0.087 | citarinostat 0.044 | silmitasertib 0.121 | [5] 0.198 | [6] -0.1 | entospletinib 0.142

ADAM15 (UniProt Q13444)
inactive: [1] -0.023 | [2] 0.034 | [4] -0.024 | entinostat 0.085 | vorinostat 0.092 | [5] 0.031

ADAR isoform 4 (UniProt P55265)
inactive: [1] 0.019 | [2] -0.605 | [3] -0.177 | [4] -0.125 | entinostat -0.146 | vorinostat 0.131 | citarinostat 0.036 | silmitasertib -0.025 | [5] 0.006 | [6] -0.008 | entospletinib -0.164

ACLY isoform 2 (UniProt P53396)
inactive: [1] -0.106 | [2] 0.199 | [3] -0.236 | [4] -0.29 | entinostat -0.061 | citarinostat -0.021 | silmitasertib 0.086 | [5] -0.063 | [6] -0.277 | entospletinib -0.056

ACTR1A (UniProt P61163)
inactive: [1] -0.009 | [2] -0.013 | [3] -0.021 | [4] 0.015 | entinostat 0.004 | vorinostat -0.03 | citarinostat 0.013 | silmitasertib 0.025 | [5] -0.018 | [6] -0.05 | entospletinib 0.052

ACTB, A0A2R8YEA7
inactive: [1] -0.284 | [2] 0.141 | [3] 0.036 | [4] 0.168 | entinostat -0.52 | citarinostat 0.216 | silmitasertib -0.114 | [6] 0.036 | entospletinib -0.049

ACAT1, A0A5F9ZHJ0
inactive: [1] -0.02 | [2] -0.105 | [3] -0.183 | entinostat 0.001 | vorinostat -0.094 | citarinostat -0.138 | silmitasertib 0.054 | [5] -0.044 | [6] -0.173 | entospletinib -0.147

A2ML1 (UniProt A8K2U0)
inactive: [1] -0.615 | [2] 0.43 | [3] 0 | [4] -0.216 | entinostat -0.367 | citarinostat -0.185 | silmitasertib 0.383 | [6] 0.627 | entospletinib -0.231

ACBD5 (UniProt Q5T8D3)
inactive: [1] -0.116 | [2] 0.009 | [3] 0.157 | [4] 0.044 | entinostat 0.089 | vorinostat 0.012 | silmitasertib -0.051 | [5] -0.025
